Experimental data from US20050096288.
Construct, isoform or probe ends are uncertain for at least one entry. A negative result means that nothing was seen under these conditions.

Test system: HDL (Homo sapiens)
Test: EMSA
Conditions: HDL binds none of the oligos; purified native protein; protein details: plasma high-density lipoprotein particle; label: 32P

Sequence | binding result
GGGAAACCGAAACTG (double strand) [ISRE oligonucleotide] | no binding
GTCCAATTGGTC (double strand) [FAS oligonucleotide] | no binding
